In paper PMC13321232 one finds binding data, which are given here for three molecules.

What all share (assay): split reporter; split luciferase: nLUC and cLUC fusions coinfiltrated into Nicotiana leaves; 1 mM d-luciferin; luminescence by EMCCD camera
Assay [1] deals with T1, PXL1-nLUC (Arabidopsis thaliana) (UniProt Q9FRS6).
T1 sequence: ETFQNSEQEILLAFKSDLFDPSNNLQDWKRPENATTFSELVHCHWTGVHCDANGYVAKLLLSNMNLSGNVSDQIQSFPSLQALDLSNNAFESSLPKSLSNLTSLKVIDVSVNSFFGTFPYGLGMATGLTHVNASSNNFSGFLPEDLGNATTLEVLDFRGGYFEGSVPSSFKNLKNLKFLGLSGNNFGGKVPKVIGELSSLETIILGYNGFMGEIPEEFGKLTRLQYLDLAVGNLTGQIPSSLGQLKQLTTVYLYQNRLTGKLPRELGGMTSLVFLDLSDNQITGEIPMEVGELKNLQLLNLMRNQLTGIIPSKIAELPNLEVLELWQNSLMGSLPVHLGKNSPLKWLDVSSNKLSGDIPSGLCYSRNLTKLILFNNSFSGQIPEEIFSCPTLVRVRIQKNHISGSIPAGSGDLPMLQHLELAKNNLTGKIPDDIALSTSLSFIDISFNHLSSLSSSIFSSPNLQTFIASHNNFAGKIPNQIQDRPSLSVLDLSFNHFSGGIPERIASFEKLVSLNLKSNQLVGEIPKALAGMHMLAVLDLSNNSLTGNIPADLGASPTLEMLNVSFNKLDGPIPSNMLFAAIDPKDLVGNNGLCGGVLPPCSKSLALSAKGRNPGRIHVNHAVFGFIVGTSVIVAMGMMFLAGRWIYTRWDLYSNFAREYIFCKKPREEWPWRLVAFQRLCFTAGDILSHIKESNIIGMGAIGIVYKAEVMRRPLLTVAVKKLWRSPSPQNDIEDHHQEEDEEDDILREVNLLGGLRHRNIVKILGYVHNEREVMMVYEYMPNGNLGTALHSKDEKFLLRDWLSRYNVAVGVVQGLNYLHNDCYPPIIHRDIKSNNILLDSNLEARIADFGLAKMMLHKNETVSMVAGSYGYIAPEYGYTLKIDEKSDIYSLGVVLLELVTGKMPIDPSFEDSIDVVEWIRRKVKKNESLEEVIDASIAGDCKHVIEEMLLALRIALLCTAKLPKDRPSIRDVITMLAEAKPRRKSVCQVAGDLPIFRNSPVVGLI

The target in assay [2] is T2, PXY-nLUC (Arabidopsis thaliana) (UniProt Q9FII5).
T2 sequence: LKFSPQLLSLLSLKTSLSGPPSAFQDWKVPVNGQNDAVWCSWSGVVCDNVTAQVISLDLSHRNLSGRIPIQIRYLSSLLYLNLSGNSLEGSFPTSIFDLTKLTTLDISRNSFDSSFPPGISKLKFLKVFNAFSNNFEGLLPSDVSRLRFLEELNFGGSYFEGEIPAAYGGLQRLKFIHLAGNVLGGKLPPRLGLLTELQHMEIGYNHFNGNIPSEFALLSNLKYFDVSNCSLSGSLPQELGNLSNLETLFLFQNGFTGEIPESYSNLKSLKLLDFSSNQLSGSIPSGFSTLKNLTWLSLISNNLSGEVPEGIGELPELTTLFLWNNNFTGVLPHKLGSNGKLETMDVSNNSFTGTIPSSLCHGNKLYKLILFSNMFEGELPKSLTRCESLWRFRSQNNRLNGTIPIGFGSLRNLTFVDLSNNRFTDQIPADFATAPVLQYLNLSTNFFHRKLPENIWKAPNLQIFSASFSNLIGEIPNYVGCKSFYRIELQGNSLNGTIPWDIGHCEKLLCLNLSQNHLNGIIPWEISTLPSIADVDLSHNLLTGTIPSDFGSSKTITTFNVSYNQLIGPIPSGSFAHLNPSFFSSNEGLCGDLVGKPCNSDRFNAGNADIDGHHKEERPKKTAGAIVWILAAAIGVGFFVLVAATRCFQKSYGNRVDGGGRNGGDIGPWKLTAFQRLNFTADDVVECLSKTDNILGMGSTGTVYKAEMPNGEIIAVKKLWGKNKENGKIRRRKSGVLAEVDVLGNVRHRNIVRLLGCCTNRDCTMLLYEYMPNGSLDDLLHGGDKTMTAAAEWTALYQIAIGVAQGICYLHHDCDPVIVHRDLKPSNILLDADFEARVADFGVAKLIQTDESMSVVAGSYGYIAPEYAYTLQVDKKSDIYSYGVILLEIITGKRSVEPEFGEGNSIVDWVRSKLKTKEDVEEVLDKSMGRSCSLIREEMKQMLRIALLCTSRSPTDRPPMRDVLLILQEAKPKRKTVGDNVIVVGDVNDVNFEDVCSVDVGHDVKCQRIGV

Assay [3] has as its target T3, PXL2-nLUC (Arabidopsis thaliana) (UniProt Q9M0G7).
T3 sequence: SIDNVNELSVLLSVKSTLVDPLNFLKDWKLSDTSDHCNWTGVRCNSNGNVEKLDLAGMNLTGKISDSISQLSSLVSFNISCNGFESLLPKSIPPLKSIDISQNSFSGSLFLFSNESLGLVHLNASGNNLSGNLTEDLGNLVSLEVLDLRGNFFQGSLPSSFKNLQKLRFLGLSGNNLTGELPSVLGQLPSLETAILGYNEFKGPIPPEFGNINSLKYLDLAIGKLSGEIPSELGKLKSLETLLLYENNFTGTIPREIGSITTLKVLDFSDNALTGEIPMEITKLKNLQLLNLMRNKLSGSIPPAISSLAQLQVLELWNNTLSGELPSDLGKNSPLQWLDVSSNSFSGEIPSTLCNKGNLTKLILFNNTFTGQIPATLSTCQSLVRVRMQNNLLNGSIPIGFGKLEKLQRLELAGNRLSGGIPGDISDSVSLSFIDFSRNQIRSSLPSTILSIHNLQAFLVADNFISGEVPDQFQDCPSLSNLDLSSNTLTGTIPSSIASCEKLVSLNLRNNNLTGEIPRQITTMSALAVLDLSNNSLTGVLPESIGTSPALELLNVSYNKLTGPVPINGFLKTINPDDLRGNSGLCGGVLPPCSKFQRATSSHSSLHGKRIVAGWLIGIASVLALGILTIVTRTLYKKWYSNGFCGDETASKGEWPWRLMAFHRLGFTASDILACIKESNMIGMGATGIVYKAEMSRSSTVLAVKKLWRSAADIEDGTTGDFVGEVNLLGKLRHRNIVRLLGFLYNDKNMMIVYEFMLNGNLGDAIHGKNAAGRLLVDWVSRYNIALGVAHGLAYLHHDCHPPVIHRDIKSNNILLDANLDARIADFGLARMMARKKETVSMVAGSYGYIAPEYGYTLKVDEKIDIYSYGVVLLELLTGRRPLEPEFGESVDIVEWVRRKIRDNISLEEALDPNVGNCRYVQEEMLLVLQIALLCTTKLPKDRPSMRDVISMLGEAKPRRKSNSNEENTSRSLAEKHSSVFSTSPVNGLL

Results are given in words; binding and its absence hold for the method and conditions named. Binding seen in cells or lysates may run through a third protein. Some binding calls cover weakened binding; strength is not graded here. Tags and fused reporters may be left off the sequences shown.

B1: ER-cLUC (receptor, UniProt Q42371 25-976)
chain: EEGATLLEIKKSFKDVNNVLYDWTTSPSSDYCVWRGVSCENVTFNVVALNLSDLNLDGEISPAIGDLKSLLSIDLRGNRLSGQIPDEIGDCSSLQNLDLSFNELSGDIPFSISKLKQLEQLILKNNQLIGPIPSTLSQIPNLKILDLAQNKLSGEIPRLIYWNEVLQYLGLRGNNLVGNISPDLCQLTGLWYFDVRNNSLTGSIPETIGNCTAFQVLDLSYNQLTGEIPFDIGFLQVATLSLQGNQLSGKIPSVIGLMQALAVLDLSGNLLSGSIPPILGNLTFTEKLYLHSNKLTGSIPPELGNMSKLHYLELNDNHLTGHIPPELGKLTDLFDLNVANNDLEGPIPDHLSSCTNLNSLNVHGNKFSGTIPRAFQKLESMTYLNLSSNNIKGPIPVELSRIGNLDTLDLSNNKINGIIPSSLGDLEHLLKMNLSRNHITGVVPGDFGNLRSIMEIDLSNNDISGPIPEELNQLQNIILLRLENNNLTGNVGSLANCLSLTVLNVSHNNLVGDIPKNNNFSRFSPDSFIGNPGLCGSWLNSPCHDSRRTVRVSISRAAILGIAIGGLVILLMVLIAACRPHNPPPFLDGSLDKPVTYSTPKLVILHMNMALHVYEDIMRMTENLSEKYIIGHGASSTVYKCVLKNCKPVAIKRLYSHNPQSMKQFETELEMLSSIKHRNLVSLQAYSLSHLGSLLFYDYLENGSLWDLLHGPTKKKTLDWDTRLKIAYGAAQGLAYLHHDCSPRIIHRDVKSSNILLDKDLEARLTDFGIAKSLCVSKSHTSTYVMGTIGYIDPEYARTSRLTEKSDVYSYGIVLLELLTRRKAVDDESNLHHLIMSKTGNNEVMEMADPDITSTCKDLGVVKKVFQLALLCTKRQPNDRPTMHQVTRVLGSFMLSEQPPAATDTSATLAGSCYVDEYANLKTPHSVNCSSMSASDAQLFLRFGQVISQNSE
Turning to B1, the binding result in assay [1], in assay [2] and in assay [3] was “binds” each time.

B2: ERL1-cLUC (receptor, UniProt C0LGW6 26-966)
chain: MNNEGKALMAIKGSFSNLVNMLLDWDDVHNSDLCSWRGVFCDNVSYSVVSLNLSSLNLGGEISPAIGDLRNLQSIDLQGNKLAGQIPDEIGNCASLVYLDLSENLLYGDIPFSISKLKQLETLNLKNNQLTGPVPATLTQIPNLKRLDLAGNHLTGEISRLLYWNEVLQYLGLRGNMLTGTLSSDMCQLTGLWYFDVRGNNLTGTIPESIGNCTSFQILDISYNQITGEIPYNIGFLQVATLSLQGNRLTGRIPEVIGLMQALAVLDLSDNELVGPIPPILGNLSFTGKLYLHGNMLTGPIPSELGNMSRLSYLQLNDNKLVGTIPPELGKLEQLFELNLANNRLVGPIPSNISSCAALNQFNVHGNLLSGSIPLAFRNLGSLTYLNLSSNNFKGKIPVELGHIINLDKLDLSGNNFSGSIPLTLGDLEHLLILNLSRNHLSGQLPAEFGNLRSIQMIDVSFNLLSGVIPTELGQLQNLNSLILNNNKLHGKIPDQLTNCFTLVNLNVSFNNLSGIVPPMKNFSRFAPASFVGNPYLCGNWVGSICGPLPKSRVFSRGALICIVLGVITLLCMIFLAVYKSMQQKKILQGSSKQAEGLTKLVILHMDMAIHTFDDIMRVTENLNEKFIIGYGASSTVYKCALKSSRPIAIKRLYNQYPHNLREFETELETIGSIRHRNIVSLHGYALSPTGNLLFYDYMENGSLWDLLHGSLKKVKLDWETRLKIAVGAAQGLAYLHHDCTPRIIHRDIKSSNILLDENFEAHLSDFGIAKSIPASKTHASTYVLGTIGYIDPEYARTSRINEKSDIYSFGIVLLELLTGKKAVDNEANLHQLILSKADDNTVMEAVDPEVTVTCMDLGHIRKTFQLALLCTKRNPLERPTMLEVSRVLLSLVPSLQVAKKLPSLDHSTKKLQQENEVRNPDAEASQWFVQFREVISKSSI
In the case of B2, the binding entry is recorded as “binds” in assay [1], “no binding” in assay [2] and “binds” in assay [3].

B3: ERL2-cLUC (receptor, UniProt Q6XAT2 28-967)
chain: MNNEGKALMAIKASFSNVANMLLDWDDVHNHDFCSWRGVFCDNVSLNVVSLNLSNLNLGGEISSALGDLMNLQSIDLQGNKLGGQIPDEIGNCVSLAYVDFSTNLLFGDIPFSISKLKQLEFLNLKNNQLTGPIPATLTQIPNLKTLDLARNQLTGEIPRLLYWNEVLQYLGLRGNMLTGTLSPDMCQLTGLWYFDVRGNNLTGTIPESIGNCTSFEILDVSYNQITGVIPYNIGFLQVATLSLQGNKLTGRIPEVIGLMQALAVLDLSDNELTGPIPPILGNLSFTGKLYLHGNKLTGQIPPELGNMSRLSYLQLNDNELVGKIPPELGKLEQLFELNLANNNLVGLIPSNISSCAALNQFNVHGNFLSGAVPLEFRNLGSLTYLNLSSNSFKGKIPAELGHIINLDTLDLSGNNFSGSIPLTLGDLEHLLILNLSRNHLNGTLPAEFGNLRSIQIIDVSFNFLAGVIPTELGQLQNINSLILNNNKIHGKIPDQLTNCFSLANLNISFNNLSGIIPPMKNFTRFSPASFFGNPFLCGNWVGSICGPSLPKSQVFTRVAVICMVLGFITLICMIFIAVYKSKQQKPVLKGSSKQPEGSTKLVILHMDMAIHTFDDIMRVTENLDEKYIIGYGASSTVYKCTSKTSRPIAIKRIYNQYPSNFREFETELETIGSIRHRNIVSLHGYALSPFGNLLFYDYMENGSLWDLLHGPGKKVKLDWETRLKIAVGAAQGLAYLHHDCTPRIIHRDIKSSNILLDGNFEARLSDFGIAKSIPATKTYASTYVLGTIGYIDPEYARTSRLNEKSDIYSFGIVLLELLTGKKAVDNEANLHQMILSKADDNTVMEAVDAEVSVTCMDSGHIKKTFQLALLCTKRNPLERPTMQEVSRVLLSLVPSPPPKKLPSPAKVQEGEERRESHSSDTTTPQWFVQFREDISKSSL
Turning to B3, the binding entry in assay [1], in assay [2] and in assay [3] was “binds” in each case.
